Measurements published in patent US9988355B2, “Form A of mesylate for nicotinamide derivatives and preparation method and application thereof” (SHANGHAI SUNTRONG BIOTECHNOLOGY CO., LTD., priority 2014, dated 2018).
Counter-ions that a name gives are not always drawn. At least one compound was matched to its structure with a doubt left.

Experiment: Solubility comparison of different crystal forms in water and ethanol
Type: physicochemical
Excerpt: Embodiment 15. Solubility Comparison of Different Crystal Forms
The form A of mesylate for niacinamide derivatives prepared according to the method of the embodiment 4 and the needle solid of nicotinamide derivatives mesylate prepared according to the method of the embodiment 10 were respectively dissolved in water and ethanol, and solubility results were shown in Table 1.

Row | Structure (SMILES) | Ethanol solubility
1 | N#CC1(c2ccc(NC(=O)c3cccnc3NCc3ccncc3)cc2)CCCC1 [Contrast needles, N-[4-(1-cyanocyclopentyl)phenyl]-2-(4-pyridylmethyl) amidogen-3-pyridineethanamine] | 0.1 g/20 ml
2 | N#CC1(c2ccc(NC(=O)c3cccnc3NCc3ccncc3)cc2)CCCC1 [The form A of mesylate for niacinamide derivatives of the pr] [N-[4-(1-cyanocyclopentyl)phenyl]-2-(4-pyridylmethyl) amidogen-3-pyridineethanamine] | 0.1 g/18 ml
